Measured values taken from publication PMC10390495.

Target: T1, Flag-tagged hexokinase 2 (HK2), overexpressed from the lentiviral vector LV-HK2 (UniProt P52789)
T1 sequence: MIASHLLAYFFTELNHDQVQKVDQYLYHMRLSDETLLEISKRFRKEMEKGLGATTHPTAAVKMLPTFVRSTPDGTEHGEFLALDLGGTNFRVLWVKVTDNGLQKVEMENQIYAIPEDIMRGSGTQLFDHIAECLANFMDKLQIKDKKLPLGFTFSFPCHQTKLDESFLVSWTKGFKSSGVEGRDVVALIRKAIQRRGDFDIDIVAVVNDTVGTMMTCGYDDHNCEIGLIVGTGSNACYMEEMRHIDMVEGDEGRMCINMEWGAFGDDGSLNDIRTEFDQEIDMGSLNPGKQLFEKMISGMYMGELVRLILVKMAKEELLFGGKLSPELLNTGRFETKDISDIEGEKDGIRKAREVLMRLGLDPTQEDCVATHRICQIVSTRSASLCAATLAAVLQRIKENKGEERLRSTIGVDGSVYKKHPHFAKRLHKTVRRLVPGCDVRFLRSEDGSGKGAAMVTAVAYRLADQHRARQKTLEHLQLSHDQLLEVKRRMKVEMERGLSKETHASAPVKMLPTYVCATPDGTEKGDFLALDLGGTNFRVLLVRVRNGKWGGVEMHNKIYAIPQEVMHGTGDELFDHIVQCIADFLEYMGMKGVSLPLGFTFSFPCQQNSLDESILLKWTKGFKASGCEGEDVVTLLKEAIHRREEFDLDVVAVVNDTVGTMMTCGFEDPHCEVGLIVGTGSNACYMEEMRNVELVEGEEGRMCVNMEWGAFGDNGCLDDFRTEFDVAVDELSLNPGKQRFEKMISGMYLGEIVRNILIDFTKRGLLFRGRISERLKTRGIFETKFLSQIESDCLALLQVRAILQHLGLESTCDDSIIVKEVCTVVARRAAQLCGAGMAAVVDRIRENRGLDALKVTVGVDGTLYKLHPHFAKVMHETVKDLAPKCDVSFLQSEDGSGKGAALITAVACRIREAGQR
Experiment: affinity purification with mass spectrometry; anti-HK2 IP products compared with anti-IgG IP products from lysates of post-IR MHCC97H LV-RFP and LV-HK2 cells; silver staining; mass spectrometry of specific bands

binding: binds
B1: aminoacyl tRNA synthetase complex interacting multifunctional protein 2 (AIMP2) (protein, UniProt Q13155 1-320)
chain: MPMYQVKPYHGGGAPLRVELPTCMYRLPNVHGRSYGPAPGAGHVQEESNLSLQALESRQDDILKRLYELKAAVDGLSKMIQTPDADLDVTNIIQADEPTTLTTNALDLNSVLGKDYGALKDIVINANPASPPLSLLVLHRLLCEHFRVLSTVHTHSSVKSVPENLLKCFGEQNKKQPRQDYQLGFTLIWKNVPKTQMKFSIQTMCPIEGEGNIARFLFSLFGQKHNAVNATLIDSWVDIAIFQLKEGSSKEKAAVFRSMNSALGKSPWLAGNELTVADVVLWSVLQQIGGCSVTVPANVQRWMRSCENLAPFNTALKLLK

No constants are given. Whether binding was seen depends on the method and setting. In cells and extracts the contact can be indirect. These calls come from enrichment with a bait or labelling near it, and not all partners need be listed. Sequences can lack the tags named with a protein.
